Results are given in words; binding and its absence hold for the method and conditions named. Some binding calls cover weakened binding; strength is not graded here.
Target: S. cerevisiae FAS β-chain, wildtype (FAS1-encoded polypeptide) (S. cerevisiae) (UniProt P07149)
Experiment: native gel or EMSA

The chains behind the UniProt entries cited, without tags or fusion partners. Where a name states a change or a piece, a line headed by the entry shows the natural chain unless it says otherwise.
UniProt P07149: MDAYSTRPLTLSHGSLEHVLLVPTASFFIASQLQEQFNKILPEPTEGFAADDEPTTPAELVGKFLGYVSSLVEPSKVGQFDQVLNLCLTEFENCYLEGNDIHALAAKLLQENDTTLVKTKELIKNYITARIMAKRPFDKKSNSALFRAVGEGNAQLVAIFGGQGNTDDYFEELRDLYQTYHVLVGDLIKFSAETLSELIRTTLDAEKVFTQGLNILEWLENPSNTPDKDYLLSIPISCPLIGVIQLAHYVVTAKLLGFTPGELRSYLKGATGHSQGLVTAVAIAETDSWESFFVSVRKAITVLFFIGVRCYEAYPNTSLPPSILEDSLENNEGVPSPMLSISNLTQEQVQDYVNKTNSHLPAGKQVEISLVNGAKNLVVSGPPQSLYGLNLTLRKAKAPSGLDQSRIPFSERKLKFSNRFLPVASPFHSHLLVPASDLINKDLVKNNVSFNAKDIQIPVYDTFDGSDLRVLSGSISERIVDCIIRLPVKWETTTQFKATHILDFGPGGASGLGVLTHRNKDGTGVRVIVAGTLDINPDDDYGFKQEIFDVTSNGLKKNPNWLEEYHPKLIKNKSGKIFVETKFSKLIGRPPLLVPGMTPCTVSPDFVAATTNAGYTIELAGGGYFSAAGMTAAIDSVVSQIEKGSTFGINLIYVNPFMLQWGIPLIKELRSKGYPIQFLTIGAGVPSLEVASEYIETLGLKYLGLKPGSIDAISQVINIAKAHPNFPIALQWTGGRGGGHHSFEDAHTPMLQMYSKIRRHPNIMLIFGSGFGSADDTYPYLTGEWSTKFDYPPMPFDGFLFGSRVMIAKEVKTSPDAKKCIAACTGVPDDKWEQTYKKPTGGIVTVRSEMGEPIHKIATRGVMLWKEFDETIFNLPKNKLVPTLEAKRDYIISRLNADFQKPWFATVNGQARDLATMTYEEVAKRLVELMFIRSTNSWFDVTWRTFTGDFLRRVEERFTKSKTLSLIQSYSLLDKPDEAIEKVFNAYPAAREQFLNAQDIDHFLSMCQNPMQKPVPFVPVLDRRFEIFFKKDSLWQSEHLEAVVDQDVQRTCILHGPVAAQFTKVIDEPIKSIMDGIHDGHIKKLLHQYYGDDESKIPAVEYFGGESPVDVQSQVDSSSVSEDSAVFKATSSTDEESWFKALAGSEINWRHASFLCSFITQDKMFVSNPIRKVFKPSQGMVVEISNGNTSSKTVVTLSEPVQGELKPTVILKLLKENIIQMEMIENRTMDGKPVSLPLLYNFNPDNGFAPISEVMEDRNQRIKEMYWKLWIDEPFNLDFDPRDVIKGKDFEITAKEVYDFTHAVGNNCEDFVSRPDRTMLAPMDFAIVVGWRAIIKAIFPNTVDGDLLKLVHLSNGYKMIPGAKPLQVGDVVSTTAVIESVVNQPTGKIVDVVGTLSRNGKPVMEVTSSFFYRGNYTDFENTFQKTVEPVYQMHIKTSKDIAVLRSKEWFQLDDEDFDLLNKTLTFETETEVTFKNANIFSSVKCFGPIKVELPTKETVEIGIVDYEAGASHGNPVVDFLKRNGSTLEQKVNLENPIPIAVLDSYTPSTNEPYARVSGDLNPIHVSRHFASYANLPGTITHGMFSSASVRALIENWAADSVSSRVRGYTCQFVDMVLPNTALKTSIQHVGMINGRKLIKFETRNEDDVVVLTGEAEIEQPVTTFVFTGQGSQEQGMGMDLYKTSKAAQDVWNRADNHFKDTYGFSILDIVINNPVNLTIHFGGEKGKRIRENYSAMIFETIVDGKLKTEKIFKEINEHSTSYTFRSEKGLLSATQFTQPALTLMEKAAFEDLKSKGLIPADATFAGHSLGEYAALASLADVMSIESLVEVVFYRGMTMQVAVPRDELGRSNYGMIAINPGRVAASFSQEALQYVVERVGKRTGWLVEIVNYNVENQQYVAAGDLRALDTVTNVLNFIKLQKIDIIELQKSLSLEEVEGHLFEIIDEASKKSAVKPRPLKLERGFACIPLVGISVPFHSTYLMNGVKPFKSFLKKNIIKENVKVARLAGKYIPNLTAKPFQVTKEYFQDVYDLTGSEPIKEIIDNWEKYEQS
UniProt P19097: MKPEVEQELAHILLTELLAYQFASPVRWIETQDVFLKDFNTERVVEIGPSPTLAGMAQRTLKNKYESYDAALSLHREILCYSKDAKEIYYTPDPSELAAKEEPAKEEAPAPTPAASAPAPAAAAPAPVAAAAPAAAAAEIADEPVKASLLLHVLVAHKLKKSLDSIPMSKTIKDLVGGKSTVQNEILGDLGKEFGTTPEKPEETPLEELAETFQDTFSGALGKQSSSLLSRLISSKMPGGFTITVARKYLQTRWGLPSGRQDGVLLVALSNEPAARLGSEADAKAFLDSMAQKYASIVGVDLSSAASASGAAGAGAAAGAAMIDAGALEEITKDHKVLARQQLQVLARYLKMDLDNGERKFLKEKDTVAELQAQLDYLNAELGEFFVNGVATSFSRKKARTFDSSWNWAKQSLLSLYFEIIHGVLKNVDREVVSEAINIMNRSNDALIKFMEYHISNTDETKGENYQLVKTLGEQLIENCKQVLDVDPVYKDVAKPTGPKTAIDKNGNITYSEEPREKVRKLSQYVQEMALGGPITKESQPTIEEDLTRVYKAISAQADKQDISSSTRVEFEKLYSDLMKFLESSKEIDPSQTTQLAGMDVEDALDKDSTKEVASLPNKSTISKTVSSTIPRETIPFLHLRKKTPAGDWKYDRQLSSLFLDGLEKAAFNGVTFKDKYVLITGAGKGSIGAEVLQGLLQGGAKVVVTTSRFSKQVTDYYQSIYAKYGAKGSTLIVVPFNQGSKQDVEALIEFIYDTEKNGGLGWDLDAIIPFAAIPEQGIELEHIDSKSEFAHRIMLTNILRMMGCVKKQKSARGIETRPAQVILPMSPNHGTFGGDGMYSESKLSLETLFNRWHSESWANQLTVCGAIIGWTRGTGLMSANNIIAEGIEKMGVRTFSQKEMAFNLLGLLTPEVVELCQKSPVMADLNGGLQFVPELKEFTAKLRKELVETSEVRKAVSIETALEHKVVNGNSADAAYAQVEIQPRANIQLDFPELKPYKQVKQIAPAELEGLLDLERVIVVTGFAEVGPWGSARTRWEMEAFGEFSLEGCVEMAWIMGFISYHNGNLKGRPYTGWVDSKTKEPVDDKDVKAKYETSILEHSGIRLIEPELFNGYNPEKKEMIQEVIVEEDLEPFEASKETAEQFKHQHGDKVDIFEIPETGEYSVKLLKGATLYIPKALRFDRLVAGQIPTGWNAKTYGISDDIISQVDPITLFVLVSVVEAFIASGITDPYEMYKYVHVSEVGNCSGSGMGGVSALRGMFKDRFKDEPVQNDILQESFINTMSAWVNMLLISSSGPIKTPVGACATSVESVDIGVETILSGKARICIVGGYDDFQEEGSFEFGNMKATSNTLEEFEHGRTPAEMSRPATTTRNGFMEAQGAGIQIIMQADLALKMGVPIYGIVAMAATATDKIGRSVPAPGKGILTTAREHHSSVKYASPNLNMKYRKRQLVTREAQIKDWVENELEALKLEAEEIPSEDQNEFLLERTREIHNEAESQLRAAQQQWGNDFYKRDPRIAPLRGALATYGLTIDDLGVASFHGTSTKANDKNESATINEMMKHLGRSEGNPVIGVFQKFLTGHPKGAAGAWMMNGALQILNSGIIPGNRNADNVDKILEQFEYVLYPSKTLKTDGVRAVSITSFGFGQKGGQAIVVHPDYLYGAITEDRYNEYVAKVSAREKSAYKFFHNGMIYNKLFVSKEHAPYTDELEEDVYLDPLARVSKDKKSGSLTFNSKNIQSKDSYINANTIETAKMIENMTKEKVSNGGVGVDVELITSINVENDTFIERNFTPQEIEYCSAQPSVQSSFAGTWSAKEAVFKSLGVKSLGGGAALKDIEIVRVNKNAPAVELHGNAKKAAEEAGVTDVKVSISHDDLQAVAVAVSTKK

Substance: S. cerevisiae FAS α-chain, phosphopantetheinylation-deficient S180A (from UniProt P19097 1-1887)
- binding: binds

Substance: S. cerevisiae FAS α-chain, wildtype (FAS2-encoded polypeptide) (from UniProt P19097 1-1887)
- binding: binds

Reference: publication doi:10.1101/336578
